# The supplement of paper PMC10849652
# The chains behind the UniProt entries cited, without tags or fusion partners. Where a name states a change or a piece, a line headed by the entry shows the natural chain unless it says otherwise.
# UniProt Q9P206: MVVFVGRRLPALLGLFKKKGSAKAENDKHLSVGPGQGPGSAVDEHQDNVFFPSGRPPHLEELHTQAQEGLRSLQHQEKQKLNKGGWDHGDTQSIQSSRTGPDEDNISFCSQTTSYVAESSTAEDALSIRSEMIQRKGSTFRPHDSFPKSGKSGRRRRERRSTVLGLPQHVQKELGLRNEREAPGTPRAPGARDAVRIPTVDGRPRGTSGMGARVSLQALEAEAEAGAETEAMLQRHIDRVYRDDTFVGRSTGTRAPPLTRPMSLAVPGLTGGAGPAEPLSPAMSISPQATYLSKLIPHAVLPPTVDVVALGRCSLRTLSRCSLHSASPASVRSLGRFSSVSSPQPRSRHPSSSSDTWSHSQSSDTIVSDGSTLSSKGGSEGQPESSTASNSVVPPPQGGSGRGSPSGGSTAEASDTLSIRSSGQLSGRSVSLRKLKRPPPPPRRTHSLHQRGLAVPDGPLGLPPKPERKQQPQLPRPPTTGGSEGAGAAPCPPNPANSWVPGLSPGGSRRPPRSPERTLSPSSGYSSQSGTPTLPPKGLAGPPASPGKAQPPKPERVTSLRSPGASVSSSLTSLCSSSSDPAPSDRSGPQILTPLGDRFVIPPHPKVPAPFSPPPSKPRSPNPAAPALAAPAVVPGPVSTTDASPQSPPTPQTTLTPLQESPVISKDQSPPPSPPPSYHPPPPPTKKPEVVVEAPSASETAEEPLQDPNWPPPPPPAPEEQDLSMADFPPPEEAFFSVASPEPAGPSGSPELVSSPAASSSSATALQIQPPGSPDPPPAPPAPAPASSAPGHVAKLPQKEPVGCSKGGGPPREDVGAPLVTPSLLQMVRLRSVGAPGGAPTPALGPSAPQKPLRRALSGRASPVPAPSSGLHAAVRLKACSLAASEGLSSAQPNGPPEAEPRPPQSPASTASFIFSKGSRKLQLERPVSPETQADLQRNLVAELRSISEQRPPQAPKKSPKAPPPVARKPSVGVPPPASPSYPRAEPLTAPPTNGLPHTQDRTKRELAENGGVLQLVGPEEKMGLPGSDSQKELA
# UniProt Q9NVX7: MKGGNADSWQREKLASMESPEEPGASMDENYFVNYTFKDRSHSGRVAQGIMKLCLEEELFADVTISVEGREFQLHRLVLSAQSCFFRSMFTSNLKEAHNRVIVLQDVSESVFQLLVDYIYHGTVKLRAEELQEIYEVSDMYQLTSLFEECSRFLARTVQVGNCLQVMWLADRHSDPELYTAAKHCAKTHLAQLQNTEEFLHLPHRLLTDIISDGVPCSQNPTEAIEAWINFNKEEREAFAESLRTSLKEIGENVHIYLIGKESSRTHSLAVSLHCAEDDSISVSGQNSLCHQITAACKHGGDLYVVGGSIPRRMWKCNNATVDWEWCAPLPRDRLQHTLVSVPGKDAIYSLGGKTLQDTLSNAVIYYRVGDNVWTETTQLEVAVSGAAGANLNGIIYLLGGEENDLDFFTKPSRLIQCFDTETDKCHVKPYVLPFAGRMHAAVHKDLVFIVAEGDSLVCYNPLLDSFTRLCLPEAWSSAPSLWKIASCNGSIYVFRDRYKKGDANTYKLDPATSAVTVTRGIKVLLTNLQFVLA
# UniProt Q14974, whole entry, looked up: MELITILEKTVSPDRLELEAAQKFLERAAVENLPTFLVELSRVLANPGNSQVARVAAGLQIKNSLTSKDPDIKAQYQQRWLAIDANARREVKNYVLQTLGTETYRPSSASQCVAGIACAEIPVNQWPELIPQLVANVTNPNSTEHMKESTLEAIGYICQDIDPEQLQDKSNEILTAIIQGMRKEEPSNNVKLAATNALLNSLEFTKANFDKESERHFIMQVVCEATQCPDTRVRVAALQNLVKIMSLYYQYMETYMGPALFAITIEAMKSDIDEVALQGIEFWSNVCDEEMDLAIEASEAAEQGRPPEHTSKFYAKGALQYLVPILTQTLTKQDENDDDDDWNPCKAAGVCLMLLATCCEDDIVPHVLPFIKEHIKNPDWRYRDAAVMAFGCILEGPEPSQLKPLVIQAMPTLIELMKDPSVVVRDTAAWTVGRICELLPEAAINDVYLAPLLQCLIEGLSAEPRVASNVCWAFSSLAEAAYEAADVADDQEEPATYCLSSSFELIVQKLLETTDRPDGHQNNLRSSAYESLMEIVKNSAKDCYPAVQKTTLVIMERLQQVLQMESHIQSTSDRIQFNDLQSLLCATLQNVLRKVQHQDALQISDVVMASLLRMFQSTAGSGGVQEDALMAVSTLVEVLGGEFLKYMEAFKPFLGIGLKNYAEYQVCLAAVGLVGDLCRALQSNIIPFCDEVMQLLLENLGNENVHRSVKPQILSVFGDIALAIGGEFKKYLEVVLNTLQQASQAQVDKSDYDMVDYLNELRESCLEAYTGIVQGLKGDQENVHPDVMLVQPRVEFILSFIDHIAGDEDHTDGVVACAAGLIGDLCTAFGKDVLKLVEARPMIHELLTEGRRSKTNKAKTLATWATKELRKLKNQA
# UniProt O76095: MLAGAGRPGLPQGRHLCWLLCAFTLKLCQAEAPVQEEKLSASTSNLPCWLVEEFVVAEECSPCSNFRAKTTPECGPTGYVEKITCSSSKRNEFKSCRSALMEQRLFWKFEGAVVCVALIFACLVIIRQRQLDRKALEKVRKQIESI
# UniProt O60268: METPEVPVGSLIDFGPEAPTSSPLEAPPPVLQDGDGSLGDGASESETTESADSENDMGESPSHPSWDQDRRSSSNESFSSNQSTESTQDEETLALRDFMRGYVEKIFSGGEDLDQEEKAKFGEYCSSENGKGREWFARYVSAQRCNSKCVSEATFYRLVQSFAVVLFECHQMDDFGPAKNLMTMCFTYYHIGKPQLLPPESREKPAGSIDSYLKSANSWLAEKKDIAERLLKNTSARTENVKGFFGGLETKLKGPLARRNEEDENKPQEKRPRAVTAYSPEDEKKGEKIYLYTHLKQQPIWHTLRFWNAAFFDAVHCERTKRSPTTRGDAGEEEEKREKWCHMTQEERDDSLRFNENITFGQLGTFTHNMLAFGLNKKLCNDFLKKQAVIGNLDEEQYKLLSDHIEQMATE
# UniProt O94889: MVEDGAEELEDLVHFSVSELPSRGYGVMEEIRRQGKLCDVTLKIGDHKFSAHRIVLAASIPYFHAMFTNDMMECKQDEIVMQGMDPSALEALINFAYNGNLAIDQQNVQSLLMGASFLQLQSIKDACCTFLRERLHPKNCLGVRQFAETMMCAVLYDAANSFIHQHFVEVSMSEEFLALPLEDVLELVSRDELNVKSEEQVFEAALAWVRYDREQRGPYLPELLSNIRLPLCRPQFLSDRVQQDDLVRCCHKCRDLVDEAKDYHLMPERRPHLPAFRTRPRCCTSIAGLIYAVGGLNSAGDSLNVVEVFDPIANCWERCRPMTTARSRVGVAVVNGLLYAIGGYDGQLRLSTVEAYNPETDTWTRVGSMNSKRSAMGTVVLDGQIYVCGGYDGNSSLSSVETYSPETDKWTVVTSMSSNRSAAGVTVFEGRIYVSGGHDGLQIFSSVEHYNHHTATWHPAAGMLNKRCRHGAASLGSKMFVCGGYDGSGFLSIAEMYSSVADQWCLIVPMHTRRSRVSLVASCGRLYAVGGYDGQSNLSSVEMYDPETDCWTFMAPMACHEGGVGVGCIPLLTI
# UniProt Q13303: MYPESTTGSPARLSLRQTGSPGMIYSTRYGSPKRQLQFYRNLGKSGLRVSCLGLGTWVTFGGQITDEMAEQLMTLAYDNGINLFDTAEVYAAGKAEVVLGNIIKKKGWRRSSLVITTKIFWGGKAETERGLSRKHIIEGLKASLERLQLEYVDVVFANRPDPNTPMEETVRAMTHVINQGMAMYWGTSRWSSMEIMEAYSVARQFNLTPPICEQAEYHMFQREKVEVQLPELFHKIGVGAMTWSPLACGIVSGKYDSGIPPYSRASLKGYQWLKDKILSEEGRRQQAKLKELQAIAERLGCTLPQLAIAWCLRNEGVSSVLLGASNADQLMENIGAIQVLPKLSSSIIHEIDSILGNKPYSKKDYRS
# UniProt Q14681: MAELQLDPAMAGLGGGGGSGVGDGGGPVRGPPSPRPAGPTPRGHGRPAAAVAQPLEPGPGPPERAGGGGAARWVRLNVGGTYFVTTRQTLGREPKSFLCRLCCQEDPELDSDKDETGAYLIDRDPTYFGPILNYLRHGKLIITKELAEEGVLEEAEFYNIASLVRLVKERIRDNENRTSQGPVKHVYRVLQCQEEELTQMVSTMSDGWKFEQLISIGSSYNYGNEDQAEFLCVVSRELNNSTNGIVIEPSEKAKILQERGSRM
# UniProt P41229: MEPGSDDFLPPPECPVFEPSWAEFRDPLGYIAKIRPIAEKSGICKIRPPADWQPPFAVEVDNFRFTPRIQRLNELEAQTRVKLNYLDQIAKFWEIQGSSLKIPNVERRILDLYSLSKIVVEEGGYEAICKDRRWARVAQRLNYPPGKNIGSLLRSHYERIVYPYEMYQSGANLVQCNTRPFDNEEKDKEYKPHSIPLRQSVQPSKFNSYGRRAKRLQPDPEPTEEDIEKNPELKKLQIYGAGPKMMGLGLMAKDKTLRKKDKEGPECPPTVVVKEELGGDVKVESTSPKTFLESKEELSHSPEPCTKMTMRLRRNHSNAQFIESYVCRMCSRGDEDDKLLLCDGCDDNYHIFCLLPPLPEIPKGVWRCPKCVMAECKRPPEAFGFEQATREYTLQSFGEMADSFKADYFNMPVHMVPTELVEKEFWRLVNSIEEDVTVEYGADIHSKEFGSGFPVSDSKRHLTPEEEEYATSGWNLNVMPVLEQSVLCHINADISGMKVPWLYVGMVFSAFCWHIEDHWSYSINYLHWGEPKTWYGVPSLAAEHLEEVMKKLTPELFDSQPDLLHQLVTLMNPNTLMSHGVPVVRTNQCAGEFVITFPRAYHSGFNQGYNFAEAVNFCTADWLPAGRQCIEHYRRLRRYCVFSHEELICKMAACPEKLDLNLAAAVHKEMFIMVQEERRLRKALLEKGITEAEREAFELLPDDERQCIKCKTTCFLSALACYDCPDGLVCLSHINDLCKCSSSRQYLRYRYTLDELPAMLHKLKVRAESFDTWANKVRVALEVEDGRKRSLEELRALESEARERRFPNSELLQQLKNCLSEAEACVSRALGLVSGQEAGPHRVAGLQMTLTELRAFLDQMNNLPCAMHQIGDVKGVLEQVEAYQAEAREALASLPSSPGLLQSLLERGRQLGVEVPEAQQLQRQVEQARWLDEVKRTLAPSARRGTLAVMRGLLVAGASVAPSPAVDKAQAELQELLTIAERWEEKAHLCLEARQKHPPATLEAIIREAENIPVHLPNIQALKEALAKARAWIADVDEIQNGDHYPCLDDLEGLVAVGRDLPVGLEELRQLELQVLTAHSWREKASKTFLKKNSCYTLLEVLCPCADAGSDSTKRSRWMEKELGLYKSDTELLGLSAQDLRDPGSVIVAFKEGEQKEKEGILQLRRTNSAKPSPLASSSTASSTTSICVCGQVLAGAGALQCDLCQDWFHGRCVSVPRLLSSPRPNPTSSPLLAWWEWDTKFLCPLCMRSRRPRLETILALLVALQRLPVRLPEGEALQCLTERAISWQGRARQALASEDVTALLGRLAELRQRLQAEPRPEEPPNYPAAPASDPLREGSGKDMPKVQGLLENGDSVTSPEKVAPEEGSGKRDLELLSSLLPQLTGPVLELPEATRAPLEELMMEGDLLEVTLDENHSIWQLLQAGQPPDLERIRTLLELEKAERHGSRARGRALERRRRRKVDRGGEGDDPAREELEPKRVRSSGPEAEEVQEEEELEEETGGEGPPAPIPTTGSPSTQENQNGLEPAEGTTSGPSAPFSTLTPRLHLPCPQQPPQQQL
# UniProt Q8IY47: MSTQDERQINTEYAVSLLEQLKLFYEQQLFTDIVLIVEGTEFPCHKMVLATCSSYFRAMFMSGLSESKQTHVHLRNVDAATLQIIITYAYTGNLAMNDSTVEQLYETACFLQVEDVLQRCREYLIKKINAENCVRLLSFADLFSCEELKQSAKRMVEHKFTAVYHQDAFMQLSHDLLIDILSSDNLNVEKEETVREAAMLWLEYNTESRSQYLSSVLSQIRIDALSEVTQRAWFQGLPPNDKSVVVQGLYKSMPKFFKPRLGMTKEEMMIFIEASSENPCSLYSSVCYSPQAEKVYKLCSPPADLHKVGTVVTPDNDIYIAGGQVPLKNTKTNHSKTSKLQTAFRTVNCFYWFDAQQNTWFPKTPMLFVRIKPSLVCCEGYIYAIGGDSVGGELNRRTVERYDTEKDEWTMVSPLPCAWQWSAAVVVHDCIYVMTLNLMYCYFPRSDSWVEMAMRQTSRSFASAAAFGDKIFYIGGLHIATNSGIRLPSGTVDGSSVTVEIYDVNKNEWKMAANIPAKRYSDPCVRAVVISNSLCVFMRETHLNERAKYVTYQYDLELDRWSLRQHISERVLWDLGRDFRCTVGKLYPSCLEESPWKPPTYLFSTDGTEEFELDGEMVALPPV
# UniProt Q9UK76: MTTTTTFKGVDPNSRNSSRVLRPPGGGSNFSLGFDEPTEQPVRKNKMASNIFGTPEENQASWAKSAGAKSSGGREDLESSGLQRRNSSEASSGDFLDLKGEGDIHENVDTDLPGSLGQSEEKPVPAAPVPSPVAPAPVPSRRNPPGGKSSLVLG
# Some of the results follow.
# Compound: Cc1sc2c(c1C)C(c1ccc(Cl)cc1)=N[C@@H](CC(=O)OC(C)(C)C)c1nnc(C)n1-2
# Assay: log2 fold change, soluble protein after heating vs DMSO (PISA); higher = thermal stabilisation; K562 cells, 10 uM, 30 min; active = over 0.2 and 3.5 SD of the protein, either way, in both replicates (recomputed)
# Outline: (§1)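 K562 cells at 2×10^6 cells/mL were given 10 μM compound for 30 min. Aliquots then went through 3 min of heating across 48°C-58°C, were pooled, and were extracted in PBS with 0.5% NP-40 at 4°C, and the supernatant after 21,000xg for 90 min was quantified by TMTpro 16plex LC-MS/MS with channel sums equalised. Thermal stability relative to control samples, from duplicates, is given as log2 fold change.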
row,Target,log2 fold change
1,KCTD10 (UniProt Q9H3F6),inactive: -0.01
2,KHSRP (UniProt Q92945),inactive: -0.002
3,JMJD1C (UniProt Q15652),inactive: -0.053
4,KIF23 (UniProt Q02241),inactive: -0.093
5,KDM5D isoform 3 (UniProt Q9BY66),inactive: -0.022
6,KIAA1522 isoform 2 (UniProt Q9P206),inactive: 0.018
7,KBTBD4 isoform 2 (UniProt Q9NVX7),inactive: -0.045
8,KPNB1 (UniProt Q14974),inactive: 0.001
9,JTB (UniProt O76095),inactive: 0.057
10,KIAA0513 (UniProt O60268),inactive: -0.001
11,KLHL18 (UniProt O94889),inactive: 0.017
12,KDM3B (UniProt Q7LBC6),inactive: 0.038
13,KCNAB2 (UniProt Q13303),inactive: 0.023
14,KIAA0100 (UniProt Q14667),inactive: 0.036
15,KNG1 (UniProt P01042),inactive: 0.016
16,KDELR2 (UniProt P33947),inactive: -0.137
17,KCTD2 (UniProt Q14681),inactive: 0.195
18,KDM5C (UniProt P41229),inactive: 0
19,KPNA6 (UniProt O60684),inactive: 0.105
20,KLC2 (UniProt Q9H0B6),inactive: 0.032
21,KLC1 isoform 6 (UniProt Q07866),inactive: 0.001
22,KBTBD2 (UniProt Q8IY47),inactive: -0.023
23,KHDC4 (UniProt Q7Z7F0),inactive: -0.061
24,KCMF1 (UniProt Q9P0J7),inactive: 0.047
25,KPTN (UniProt Q9Y664),inactive: -0.135
26,KCTD9 (UniProt Q7L273),inactive: -0.071
27,KIAA2013 isoform 2 (UniProt Q8IYS2),inactive: -0.011
28,JPT1 (UniProt Q9UK76),inactive: -0.021

# Compound: c1ccc([C@@H]2C[C@H]2NC2CCNCC2)cc1
# Assay: as above
# Outline: as §1
row,Target,log2 fold change
1,KCTD10 (UniProt Q9H3F6),inactive: 0.03
2,KHSRP (UniProt Q92945),inactive: 0
3,JMJD1C (UniProt Q15652),inactive: -0.069
4,KIF23 (UniProt Q02241),inactive: -0.035
5,KDM5D isoform 3 (UniProt Q9BY66),inactive: 0.037
6,KIAA1522 isoform 2 (UniProt Q9P206),inactive: 0.118
7,KBTBD4 isoform 2 (UniProt Q9NVX7),inactive: 0.005
8,KPNB1 (UniProt Q14974),inactive: -0.021
9,JTB (UniProt O76095),inactive: 0.036
10,KIAA0513 (UniProt O60268),inactive: 0.062
11,KLHL18 (UniProt O94889),inactive: -0.021
12,KDM3B (UniProt Q7LBC6),inactive: 0.071
13,KCNAB2 (UniProt Q13303),inactive: 0.065
14,KIAA0100 (UniProt Q14667),inactive: 0.023
15,KNG1 (UniProt P01042),inactive: -0.014
16,KDELR2 (UniProt P33947),inactive: 0.115
17,KCTD2 (UniProt Q14681),inactive: 0.158
18,KDM5C (UniProt P41229),inactive: 0.04
19,KPNA6 (UniProt O60684),inactive: 0.07
20,KLC2 (UniProt Q9H0B6),inactive: 0
21,KLC1 isoform 6 (UniProt Q07866),inactive: -0.024
22,KBTBD2 (UniProt Q8IY47),inactive: -0.006
23,KHDC4 (UniProt Q7Z7F0),inactive: -0.064
24,KCMF1 (UniProt Q9P0J7),inactive: 0.019
25,KPTN (UniProt Q9Y664),inactive: -0.111
26,KCTD9 (UniProt Q7L273),inactive: -0.03
27,KIAA2013 isoform 2 (UniProt Q8IYS2),inactive: 0
28,JPT1 (UniProt Q9UK76),inactive: -0.004
